Reference: US20240108637A1, “EPITE[…] AND/OR A STEROID SULFATASE INHIBITOR FOR USE IN TREATING OR IMPROVING AGE RELATED COGNITIVE IMPAIRMENT” (U[…] DE OLAVIDE, priority 2020, published 2024)
Entries after “also recorded” stand apart in the source; their conditions may differ. At least one compound was matched to its structure with a doubt left.

Test system: NL5901 strain expressing α-synuclein in muscle cells
Test: Parkinson's disease model: mobility of NL5901 strain
Type: in vivo, C. elegans
Conditions: 1 μg/ml
Text: We have studied the anatomical location of sul-2 expression from an extrachromosomal array and in single-copy insertion transgenic strains. […] There is no detectable expression in the germline in any transgenic strains (FIG. 2n and FIG. 10, 11a-b). ASE neurons are responsible for the attractive response of Na+ and Cl−, among others. Defects in odour sensing affect longevity. Therefore, we tested the ability of sul-2 mutants to respond to Cl− or Na+ and found no differences compared to wild type animals (FIG. 11c-d). Furthermore, sul-2 mutation increases the longevity of daf-10(m79), a long-lived mutant defective in sensory cilia formation25 (FIG. 11e). […] Reduction of sul-2 improves aging associated diseases in C. elegans Aging is considered the main risk factor for the onset of neurodegenerative disorders like Parkinson, Huntington, or Alzheimer's diseases. These disorders are caused by the progressive decline of proteostasis, which results in protein aggregation that compromises cellular functions and finally causes cell death. Germline-deficient C. elegans delay the symptoms derived from the proteotoxicity of ectopically expressed human β-amyloid (βA). We tested if sul-2 mutations or STX64 treatment improves the symptoms of C. elegans models for neurodegenerative diseases.

Structure (SMILES): C[C@]12CC[C@H](O)CC1=CC[C@@H]1[C@@H]2CC[C@]2(C)C(c3cccnc3)=CC[C@@H]12 [Abi, abiraterone]
- mobility: effect on the benefit of sul-2 deletion (NL5901 strain in sul-2 deletion background, FIG. 4e): suppresses the beneficial effect of sul-2 deletion allele; also recorded: suppressed the beneficial effect of sul-2 mutation
- mobility with age (NL5901 strain): does not affect mobility phenotype; also recorded: did not affect wild type animals
